Reference: the supplement of paper PMC11348887
Structures can show the parent of a compound that is named as a salt. ± gives the standard deviation of the averaged measurements. The list shows a part of the results. Most entries show no effect beyond the scatter of the controls.

Each molecule was assayed on hPSC-derived cortical neurons (WA09) (assay: total neurite length per nucleus (MAP2) z-score; higher = more neurite growth). Conditions: 5 µM; treatment: days 7-14 after plating, readout day 21.

SMILES	total neurite length per nucleus (z-score)
Cc1ncc(CO)c(CO)c1O [Pyridoxine HCl]	0.253
Cc1ccc(S(=O)(=O)NC(=O)NN2CC3CCCC3C2)cc1 (stereo not given) [Gliclazide]	0.795
CCCC(CCC)C(=O)O [Divalproex Sodium]	1.17
CCOC(=O)C1=C[C@@H](OC(CC)CC)[C@H](NC(C)=O)[C@@H](N)C1 [Oseltamivir Phosphate]	0.428
O=C(O)c1cccnc1 [Nicotinic Acid]	0.433
N=C(N)NC(=N)N1CCOCC1 [Moroxydine HCl]	1.84
CCCN(CCC)CCc1cccc2c1CC(=O)N2 [Ropinirole HCl]	0.492
CCCN[C@H]1CCc2nc(N)sc2C1 [Pramipexole]	-0.444
C[C@H]1C[C@H]2[C@@H]3CCC4=CC(=O)C=C[C@]4(C)[C@@]3(F)[C@@H](O)C[C@]2(C)[C@@]1(O)C(=O)CO [Betamethasone]	-0.65
CN(C)c1ccc(O)c2c1C[C@H]1C[C@H]3[C@H](N(C)C)C(O)=C(C(N)=O)C(=O)[C@@]3(O)C(O)=C1C2=O [Minocycline HCl]	0.407
Cc1cc(Nc2nc(N[C@@H](C)c3ncc(F)cn3)ncc2Cl)[nH]n1	0.546
COc1cc(F)c(C(C)C)cc1-c1ccc(C(F)(F)F)cc1CN1C(=O)O[C@H](c2cc(C(F)(F)F)cc(C(F)(F)F)c2)[C@@H]1C [Anacetrapib (MK-0859)]	-0.676
COc1cc(CCC(C)=O)ccc1O [Vanillylacetone]	-1.24
Cc1cccc(Nc2cc(Cl)nc(SCC(=O)O)n2)c1C	0.359
CC1(C)CC[C@]2(C(=O)O)CC[C@]3(C)C(=CC[C@@H]4[C@@]5(C)CC[C@H](O)C(C)(C)[C@@H]5CC[C@]43C)[C@@H]2C1 [Oleanolic Acid]	-0.519
CO[C@H]1C[C@@H]2CC[C@@H](C)[C@@](O)(O2)C(=O)C(=O)N2CCCC[C@H]2C(=O)O[C@H]([C@H](C)C[C@@H]2CC[C@@H](OP(C)(C)=O)[C@H](OC)C2)CC(=O)[C@H](C)/C=C(\C)[C@@H](O)[C@@H](OC)C(=O)[C@H](C)C[C@H](C)/C=C/C=C/C=C/1C [Ridaforolimus (Deforolimus, MK-8669)]	-1.49
CNC(=O)c1ccc(C)c(-n2c(C)cc(OCc3ccc(F)cc3F)c(Br)c2=O)c1	0.0696
CC12CCC(CC1=O)C2(C)C (stereo not drawn) [(+)-Camphor]	0.501

A stretch from further up:
SMILES	total neurite length per nucleus (z-score)
Cc1ncc(CO)c(CO)c1O [Pyridoxine HCl]	0.253
Cc1ccc(S(=O)(=O)NC(=O)NN2CC3CCCC3C2)cc1 (stereo not given) [Gliclazide]	0.795
CCCC(CCC)C(=O)O [Divalproex Sodium]	1.17
CCOC(=O)C1=C[C@@H](OC(CC)CC)[C@H](NC(C)=O)[C@@H](N)C1 [Oseltamivir Phosphate]	0.428
O=C(O)c1cccnc1 [Nicotinic Acid]	0.433
N=C(N)NC(=N)N1CCOCC1 [Moroxydine HCl]	1.84
CCCN(CCC)CCc1cccc2c1CC(=O)N2 [Ropinirole HCl]	0.492

Further compounds:

SMILES	total neurite length per nucleus (z-score)
OC[C@H]1OC(O)[C@H](O)[C@@H](O)[C@@H]1O (stereo not given in full) [Dextrose]	1.36
CC(C)c1cc(-c2n[nH]c(=O)n2-c2ccc3c(ccn3C)c2)c(O)cc1O [Ganetespib (STA-9090)]	-2.91
NCCc1c[nH]cn1 [Histamine Phosphate]	1.47
O=C(O)Cc1ccccc1Nc1c(Cl)cccc1Cl [Diclofenac Potassium]	-0.669
CC(O)c1cc(C(=O)N[C@@H](C)Cn2ccc(-c3ccc(C#N)c(Cl)c3)n2)n[nH]1 (stereo not given in full)	0.629
CC(C)N(C[C@H]1O[C@@H](n2cnc3c(N)ncnc32)[C@H](O)[C@@H]1O)[C@H]1C[C@@H](CCc2nc3cc(C(C)(C)C)ccc3[nH]2)C1	1.05
CN(C)Cc1cccc(N=C(c2ccccc2)c2c(O)[nH]c3cc(C(=O)N(C)C)ccc23)c1	-0.196
O=C(O)COCCN1CCN(C(c2ccccc2)c2ccc(Cl)cc2)CC1 (stereo not given) [Cetirizine DiHCl]	0.911
Nc1nc(N)c2nc(-c3cccc(O)c3)c(-c3cccc(O)c3)nc2n1	0.692
Nc1nc(Cl)nc2c1ncn2[C@H]1C[C@H](O)[C@@H](CO)O1 [Cladribine]	-2.23
N#Cc1ccc(COC[C@H]2O[C@@H](n3c(NCc4ccc(Cl)c(Cl)c4)nc4c(N)ncnc43)[C@H](O)[C@@H]2O)cc1	0.513
CN(C)Cc1ccc(-c2nc3cccc4c3n2CCNC4=O)cc1	0.717
Cc1ccc(NC(=O)c2cccc(C(C)(C)C#N)c2)cc1Nc1ccc2ncn(C)c(=O)c2c1	1.04
CC(C)NC[C@H](O)COc1ccc(CCOCC2CC2)cc1 [Levobetaxolol HCl]	-0.582
CC(=O)O/N=C1\C(=O)N(Cc2cc(Cl)ccc2Cl)c2ccc(Cl)cc21	0.954
COc1cccc(-n2c(=O)[nH]c3cc(Cl)n(-c4ccc(-c5cccc(OC)c5O)cc4)c3c2=O)c1	-0.551
CC[C@H]1OC(=O)[C@H](C)[C@@H](O[C@H]2C[C@@](C)(OC)[C@@H](O)[C@H](C)O2)[C@H](C)[C@@H](O[C@@H]2O[C@H](C)C[C@H](N(C)C)[C@H]2O)[C@](C)(O)C[C@@H](C)C(=O)[C@H](C)[C@@H](O)[C@]1(C)O [Erythromycin]	-0.546 ± 0.27
